Source: paper PMC5544689

The chains behind the UniProt entries cited, without tags or fusion partners.
UniProt Q9UKV8: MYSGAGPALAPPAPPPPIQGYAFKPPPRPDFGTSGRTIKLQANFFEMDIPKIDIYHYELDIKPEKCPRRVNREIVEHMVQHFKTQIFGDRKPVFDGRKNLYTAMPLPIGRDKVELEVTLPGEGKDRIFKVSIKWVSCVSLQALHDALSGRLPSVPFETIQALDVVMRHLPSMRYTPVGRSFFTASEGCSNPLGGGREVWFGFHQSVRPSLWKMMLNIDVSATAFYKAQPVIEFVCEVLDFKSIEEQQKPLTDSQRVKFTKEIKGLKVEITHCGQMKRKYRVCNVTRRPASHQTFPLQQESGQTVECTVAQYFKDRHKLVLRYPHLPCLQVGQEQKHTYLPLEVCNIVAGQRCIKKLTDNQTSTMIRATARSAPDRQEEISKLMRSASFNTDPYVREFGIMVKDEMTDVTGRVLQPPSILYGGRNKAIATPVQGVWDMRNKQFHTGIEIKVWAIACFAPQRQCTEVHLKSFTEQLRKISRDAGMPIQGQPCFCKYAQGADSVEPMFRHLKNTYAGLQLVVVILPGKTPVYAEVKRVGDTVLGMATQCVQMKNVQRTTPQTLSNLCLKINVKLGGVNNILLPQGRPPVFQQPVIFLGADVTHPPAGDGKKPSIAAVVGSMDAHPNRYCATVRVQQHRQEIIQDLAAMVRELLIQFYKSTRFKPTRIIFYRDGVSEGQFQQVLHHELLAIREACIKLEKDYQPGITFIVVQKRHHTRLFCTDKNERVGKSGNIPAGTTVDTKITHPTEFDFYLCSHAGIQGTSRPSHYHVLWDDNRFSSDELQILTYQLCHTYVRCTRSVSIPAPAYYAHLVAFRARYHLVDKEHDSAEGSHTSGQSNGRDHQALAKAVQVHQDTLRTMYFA
UniProt Q8NDV7: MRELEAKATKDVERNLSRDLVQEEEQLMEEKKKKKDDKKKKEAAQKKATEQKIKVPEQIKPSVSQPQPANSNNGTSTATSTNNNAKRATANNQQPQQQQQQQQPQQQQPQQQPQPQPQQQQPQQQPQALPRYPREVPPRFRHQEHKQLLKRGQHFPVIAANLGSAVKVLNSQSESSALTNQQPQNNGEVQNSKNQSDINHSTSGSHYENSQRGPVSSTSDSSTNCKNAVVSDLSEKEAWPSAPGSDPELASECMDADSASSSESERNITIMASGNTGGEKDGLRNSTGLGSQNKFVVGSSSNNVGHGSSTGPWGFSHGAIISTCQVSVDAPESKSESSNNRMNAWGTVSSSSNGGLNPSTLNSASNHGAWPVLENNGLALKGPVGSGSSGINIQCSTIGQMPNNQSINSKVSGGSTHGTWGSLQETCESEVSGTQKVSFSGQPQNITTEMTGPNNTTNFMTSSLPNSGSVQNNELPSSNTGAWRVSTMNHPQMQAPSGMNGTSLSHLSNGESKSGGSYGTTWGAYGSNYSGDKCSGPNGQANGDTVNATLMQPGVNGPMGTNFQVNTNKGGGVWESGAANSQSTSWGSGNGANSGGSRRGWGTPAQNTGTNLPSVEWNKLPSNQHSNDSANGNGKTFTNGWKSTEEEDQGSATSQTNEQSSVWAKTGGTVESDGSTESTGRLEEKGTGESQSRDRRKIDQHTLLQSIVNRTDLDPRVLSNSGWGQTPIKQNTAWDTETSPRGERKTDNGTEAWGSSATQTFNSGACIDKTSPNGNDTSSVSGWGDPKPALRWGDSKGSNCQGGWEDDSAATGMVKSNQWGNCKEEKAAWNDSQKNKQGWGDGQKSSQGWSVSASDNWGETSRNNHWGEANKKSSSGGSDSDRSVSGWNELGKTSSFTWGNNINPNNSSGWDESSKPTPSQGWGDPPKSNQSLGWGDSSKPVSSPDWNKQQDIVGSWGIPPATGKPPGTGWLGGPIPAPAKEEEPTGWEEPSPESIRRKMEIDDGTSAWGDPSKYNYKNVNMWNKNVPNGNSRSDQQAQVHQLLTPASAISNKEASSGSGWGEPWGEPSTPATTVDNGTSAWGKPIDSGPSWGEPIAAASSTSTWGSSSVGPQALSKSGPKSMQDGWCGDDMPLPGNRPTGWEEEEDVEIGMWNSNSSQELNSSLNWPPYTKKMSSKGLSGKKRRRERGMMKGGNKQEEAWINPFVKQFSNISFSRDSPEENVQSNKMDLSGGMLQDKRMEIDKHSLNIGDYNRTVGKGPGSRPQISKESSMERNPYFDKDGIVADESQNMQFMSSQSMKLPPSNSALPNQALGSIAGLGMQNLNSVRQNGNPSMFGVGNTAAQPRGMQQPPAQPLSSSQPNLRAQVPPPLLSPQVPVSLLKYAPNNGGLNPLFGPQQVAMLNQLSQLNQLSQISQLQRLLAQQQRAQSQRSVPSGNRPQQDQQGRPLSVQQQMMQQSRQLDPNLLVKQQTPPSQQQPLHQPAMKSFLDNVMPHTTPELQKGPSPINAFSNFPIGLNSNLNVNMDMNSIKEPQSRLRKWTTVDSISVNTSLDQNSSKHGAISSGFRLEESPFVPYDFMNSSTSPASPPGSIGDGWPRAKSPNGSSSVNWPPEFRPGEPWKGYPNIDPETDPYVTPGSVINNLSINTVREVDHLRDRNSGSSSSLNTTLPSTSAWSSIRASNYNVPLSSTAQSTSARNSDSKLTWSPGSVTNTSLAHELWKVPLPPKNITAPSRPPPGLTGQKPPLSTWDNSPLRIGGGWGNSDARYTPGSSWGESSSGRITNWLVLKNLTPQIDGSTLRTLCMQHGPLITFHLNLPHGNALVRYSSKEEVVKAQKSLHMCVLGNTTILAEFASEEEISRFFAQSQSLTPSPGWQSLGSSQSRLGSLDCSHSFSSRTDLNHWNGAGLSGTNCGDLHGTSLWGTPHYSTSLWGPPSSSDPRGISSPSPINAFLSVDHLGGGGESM
UniProt Q9HCJ0: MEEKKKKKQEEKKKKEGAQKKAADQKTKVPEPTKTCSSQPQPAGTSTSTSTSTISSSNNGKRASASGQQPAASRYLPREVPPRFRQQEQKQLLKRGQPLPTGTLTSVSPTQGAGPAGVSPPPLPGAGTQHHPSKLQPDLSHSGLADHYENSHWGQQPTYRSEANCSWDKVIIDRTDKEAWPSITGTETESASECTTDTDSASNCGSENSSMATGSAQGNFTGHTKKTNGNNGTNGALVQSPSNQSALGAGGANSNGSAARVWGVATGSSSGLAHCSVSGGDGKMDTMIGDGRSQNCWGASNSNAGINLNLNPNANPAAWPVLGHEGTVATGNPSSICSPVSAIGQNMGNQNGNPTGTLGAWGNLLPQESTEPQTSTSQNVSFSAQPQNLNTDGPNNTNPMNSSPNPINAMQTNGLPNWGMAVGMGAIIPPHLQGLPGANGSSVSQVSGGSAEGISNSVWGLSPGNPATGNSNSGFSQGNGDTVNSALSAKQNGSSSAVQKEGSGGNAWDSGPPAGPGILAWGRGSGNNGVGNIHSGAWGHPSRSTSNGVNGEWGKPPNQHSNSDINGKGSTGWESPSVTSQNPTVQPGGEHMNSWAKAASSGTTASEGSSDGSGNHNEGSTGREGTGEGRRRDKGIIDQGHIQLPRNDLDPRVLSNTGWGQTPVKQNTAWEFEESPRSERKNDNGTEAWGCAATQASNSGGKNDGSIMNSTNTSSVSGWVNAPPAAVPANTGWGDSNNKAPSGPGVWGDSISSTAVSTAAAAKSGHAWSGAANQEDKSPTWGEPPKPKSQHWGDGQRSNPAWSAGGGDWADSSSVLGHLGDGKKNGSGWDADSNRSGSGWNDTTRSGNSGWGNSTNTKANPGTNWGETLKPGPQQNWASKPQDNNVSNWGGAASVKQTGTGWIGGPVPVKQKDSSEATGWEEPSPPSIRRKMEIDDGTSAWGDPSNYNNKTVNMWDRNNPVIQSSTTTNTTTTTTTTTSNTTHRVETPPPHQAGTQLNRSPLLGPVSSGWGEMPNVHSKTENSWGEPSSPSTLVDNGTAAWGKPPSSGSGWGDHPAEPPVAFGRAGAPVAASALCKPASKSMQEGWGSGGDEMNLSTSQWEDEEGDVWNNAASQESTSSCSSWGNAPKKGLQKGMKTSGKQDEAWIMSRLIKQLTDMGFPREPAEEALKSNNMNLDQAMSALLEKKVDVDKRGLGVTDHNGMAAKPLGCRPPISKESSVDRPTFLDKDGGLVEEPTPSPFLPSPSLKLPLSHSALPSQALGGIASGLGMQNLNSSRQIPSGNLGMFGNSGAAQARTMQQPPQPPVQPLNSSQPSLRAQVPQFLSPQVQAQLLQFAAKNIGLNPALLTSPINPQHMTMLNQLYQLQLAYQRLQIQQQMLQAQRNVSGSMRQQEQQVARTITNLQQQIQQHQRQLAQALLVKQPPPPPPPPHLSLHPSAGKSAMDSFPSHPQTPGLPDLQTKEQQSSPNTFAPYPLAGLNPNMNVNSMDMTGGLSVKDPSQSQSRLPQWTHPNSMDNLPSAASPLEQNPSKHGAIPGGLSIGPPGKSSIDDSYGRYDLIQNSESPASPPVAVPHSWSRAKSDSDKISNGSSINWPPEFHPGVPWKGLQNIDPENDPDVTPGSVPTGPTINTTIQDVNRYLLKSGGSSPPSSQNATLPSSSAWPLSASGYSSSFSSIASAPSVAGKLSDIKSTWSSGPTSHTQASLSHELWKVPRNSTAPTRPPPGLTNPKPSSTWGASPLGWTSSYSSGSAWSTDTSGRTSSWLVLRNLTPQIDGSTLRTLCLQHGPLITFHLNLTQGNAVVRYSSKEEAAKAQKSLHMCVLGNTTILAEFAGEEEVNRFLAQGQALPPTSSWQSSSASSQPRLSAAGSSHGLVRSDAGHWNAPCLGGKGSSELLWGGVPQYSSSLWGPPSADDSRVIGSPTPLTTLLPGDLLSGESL
UniProt Q9UPQ9: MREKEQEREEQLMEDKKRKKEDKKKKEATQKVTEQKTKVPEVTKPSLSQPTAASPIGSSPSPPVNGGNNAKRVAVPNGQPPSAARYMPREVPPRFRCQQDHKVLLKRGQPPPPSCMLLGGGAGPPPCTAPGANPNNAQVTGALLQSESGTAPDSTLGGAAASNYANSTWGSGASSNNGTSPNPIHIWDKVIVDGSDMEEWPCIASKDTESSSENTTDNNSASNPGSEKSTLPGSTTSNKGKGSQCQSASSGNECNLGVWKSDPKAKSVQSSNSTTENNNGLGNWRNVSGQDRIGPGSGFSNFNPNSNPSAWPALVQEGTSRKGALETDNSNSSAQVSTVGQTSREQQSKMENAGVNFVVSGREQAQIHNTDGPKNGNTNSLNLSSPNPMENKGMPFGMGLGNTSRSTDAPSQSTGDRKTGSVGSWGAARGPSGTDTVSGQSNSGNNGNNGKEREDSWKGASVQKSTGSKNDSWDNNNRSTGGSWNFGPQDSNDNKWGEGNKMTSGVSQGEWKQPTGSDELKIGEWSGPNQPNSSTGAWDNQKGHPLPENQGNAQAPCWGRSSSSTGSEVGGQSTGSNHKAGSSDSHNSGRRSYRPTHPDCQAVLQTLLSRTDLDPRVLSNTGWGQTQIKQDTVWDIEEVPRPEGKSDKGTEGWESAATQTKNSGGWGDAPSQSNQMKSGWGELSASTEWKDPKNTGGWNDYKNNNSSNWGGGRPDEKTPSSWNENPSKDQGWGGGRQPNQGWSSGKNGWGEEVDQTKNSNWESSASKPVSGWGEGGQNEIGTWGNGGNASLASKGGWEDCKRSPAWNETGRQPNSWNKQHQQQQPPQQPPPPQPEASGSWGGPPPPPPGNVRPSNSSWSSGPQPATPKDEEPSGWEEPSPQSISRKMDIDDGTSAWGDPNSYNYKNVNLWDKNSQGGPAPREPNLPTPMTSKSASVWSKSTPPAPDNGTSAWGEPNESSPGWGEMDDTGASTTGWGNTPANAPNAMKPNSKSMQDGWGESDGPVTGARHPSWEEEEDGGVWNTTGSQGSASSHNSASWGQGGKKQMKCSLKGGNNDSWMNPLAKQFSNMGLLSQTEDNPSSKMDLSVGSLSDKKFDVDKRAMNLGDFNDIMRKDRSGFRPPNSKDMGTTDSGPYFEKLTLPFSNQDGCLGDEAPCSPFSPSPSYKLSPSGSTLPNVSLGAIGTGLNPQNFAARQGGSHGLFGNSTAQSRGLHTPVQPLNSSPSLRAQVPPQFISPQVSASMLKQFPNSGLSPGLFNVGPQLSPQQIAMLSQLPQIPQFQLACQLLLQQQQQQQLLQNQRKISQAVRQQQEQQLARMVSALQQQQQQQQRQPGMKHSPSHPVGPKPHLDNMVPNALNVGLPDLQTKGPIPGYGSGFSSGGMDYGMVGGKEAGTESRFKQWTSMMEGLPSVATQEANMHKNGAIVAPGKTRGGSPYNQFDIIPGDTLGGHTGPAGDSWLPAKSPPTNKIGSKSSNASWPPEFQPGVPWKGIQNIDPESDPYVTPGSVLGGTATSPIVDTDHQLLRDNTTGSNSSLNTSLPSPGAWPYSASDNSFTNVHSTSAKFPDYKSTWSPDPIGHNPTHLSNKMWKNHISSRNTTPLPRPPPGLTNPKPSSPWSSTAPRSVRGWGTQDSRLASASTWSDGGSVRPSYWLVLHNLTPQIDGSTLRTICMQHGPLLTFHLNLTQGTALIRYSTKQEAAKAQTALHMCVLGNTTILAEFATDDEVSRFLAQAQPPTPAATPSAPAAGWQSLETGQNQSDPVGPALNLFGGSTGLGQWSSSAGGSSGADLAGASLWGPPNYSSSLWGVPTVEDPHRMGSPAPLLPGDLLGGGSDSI

Experiments:
[1] = biological target: Argonaute 2 (AGO2) (human (endogenous in HEK293T and primary human epidermal stem cells)) (UniProt Q9UKV8); test: affinity purification with mass spectrometry; label-free quantitative IP-MS with anti-AGO2 11A9 against rat IgG, wild-type and AGO2-/- HEK293T lysates, RIPA buffer, triplicate; stoichiometry from iBAQ values scaled to the bait AGO2 = 1
[2] = biological target: Argonaute 2 (AGO2) (human (endogenous in HEK293T and primary human epidermal stem cells)) (UniProt Q9UKV8); test: affinity purification with mass spectrometry; ChIP-MS: formaldehyde cross-linked, sonicated chromatin of primary human epidermal stem cells; IP with anti-AGO2 11A9, protein G beads, washed 5X in RIPA buffer; SILAC (anti-FLAG control) and dimethyl labelling (IgG isotype control)

Substance	binding [1]	binding [2]
SMARCD1 (from UniProt Q96GM5 1-515)	–	no binding
TNRC6A (from UniProt Q8NDV7 1-1962)	binds	–

Further lines, results first:

binding [1]	binding [2]	Substance
binds	–	TNRC6C (from UniProt Q9HCJ0 1-1936)
binds	–	TNRC6B (from UniProt Q9UPQ9 1-1833)
–	no binding	SMARCE1 (from UniProt Q969G3 1-411)

These are yes or no findings as the source states them, for the method shown. Binding seen in cells or lysates may run through a third protein. A yes stands for co-enrichment or nearness to the bait. Other partners may have been found. For some assays here: A no says only that the protein was not detected with the bait.
